Data taken from the supplement of paper PMC6411743.
± gives the standard deviation of the averaged measurements. The entries are a selection whose mix differs from that of the whole data set. Most values lie at the level of the controls, where differences are scatter.

The chains behind the UniProt entries cited, without tags or fusion partners. Where a name states a change or a piece, a line headed by the entry shows the natural chain unless it says otherwise.
UniProt Q9H307: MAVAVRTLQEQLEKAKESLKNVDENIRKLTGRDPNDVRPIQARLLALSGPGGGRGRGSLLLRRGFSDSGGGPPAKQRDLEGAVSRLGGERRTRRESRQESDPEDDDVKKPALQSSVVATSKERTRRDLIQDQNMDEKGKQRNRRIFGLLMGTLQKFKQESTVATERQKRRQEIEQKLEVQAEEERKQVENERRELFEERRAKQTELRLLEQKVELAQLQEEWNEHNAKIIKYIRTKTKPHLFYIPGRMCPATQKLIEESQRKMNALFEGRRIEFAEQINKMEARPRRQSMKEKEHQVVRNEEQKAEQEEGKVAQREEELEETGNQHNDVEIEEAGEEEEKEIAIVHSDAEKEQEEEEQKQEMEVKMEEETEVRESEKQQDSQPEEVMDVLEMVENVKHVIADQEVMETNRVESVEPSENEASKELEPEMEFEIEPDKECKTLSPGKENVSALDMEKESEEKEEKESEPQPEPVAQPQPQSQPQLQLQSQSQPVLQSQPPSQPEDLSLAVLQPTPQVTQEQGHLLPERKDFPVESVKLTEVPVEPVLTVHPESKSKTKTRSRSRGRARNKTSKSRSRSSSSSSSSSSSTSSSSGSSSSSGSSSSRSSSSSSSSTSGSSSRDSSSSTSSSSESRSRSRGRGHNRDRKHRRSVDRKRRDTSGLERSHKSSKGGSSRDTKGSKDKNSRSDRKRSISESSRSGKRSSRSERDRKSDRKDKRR
UniProt Q9C0J8: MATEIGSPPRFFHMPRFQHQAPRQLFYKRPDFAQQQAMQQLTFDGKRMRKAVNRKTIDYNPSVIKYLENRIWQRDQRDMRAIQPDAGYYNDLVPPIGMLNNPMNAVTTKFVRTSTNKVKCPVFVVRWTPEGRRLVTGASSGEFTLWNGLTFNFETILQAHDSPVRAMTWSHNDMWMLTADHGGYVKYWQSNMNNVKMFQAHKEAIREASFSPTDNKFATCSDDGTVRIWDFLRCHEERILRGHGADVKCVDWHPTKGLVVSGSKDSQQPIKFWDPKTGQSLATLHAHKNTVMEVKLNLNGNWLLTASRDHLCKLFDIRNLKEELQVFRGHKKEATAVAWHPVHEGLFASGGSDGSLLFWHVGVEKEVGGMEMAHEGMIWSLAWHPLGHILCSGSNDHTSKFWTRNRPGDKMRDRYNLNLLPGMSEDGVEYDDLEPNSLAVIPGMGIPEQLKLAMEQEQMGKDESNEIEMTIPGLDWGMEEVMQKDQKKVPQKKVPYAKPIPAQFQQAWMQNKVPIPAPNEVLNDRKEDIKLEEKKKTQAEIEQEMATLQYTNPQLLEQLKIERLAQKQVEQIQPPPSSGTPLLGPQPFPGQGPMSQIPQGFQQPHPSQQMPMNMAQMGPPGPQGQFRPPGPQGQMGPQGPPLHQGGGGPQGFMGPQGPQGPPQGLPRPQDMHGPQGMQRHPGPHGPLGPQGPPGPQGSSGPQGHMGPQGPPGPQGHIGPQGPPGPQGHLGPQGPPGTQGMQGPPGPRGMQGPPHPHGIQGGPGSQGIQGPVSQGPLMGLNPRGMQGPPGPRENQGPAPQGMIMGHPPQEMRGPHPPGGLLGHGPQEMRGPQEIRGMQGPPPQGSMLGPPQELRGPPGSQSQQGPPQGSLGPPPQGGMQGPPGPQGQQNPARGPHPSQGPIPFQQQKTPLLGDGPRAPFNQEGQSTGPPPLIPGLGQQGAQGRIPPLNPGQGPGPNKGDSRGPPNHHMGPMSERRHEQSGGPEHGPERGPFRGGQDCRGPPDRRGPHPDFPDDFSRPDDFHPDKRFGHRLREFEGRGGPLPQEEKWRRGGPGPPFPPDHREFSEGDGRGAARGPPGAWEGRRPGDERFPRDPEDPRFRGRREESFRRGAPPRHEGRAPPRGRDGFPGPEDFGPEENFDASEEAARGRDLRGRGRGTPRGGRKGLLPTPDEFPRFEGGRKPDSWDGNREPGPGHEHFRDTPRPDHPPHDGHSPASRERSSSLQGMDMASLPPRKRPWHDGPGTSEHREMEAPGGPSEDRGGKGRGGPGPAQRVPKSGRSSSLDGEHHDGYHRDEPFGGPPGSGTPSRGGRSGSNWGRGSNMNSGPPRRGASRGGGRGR
UniProt Q9H0X4: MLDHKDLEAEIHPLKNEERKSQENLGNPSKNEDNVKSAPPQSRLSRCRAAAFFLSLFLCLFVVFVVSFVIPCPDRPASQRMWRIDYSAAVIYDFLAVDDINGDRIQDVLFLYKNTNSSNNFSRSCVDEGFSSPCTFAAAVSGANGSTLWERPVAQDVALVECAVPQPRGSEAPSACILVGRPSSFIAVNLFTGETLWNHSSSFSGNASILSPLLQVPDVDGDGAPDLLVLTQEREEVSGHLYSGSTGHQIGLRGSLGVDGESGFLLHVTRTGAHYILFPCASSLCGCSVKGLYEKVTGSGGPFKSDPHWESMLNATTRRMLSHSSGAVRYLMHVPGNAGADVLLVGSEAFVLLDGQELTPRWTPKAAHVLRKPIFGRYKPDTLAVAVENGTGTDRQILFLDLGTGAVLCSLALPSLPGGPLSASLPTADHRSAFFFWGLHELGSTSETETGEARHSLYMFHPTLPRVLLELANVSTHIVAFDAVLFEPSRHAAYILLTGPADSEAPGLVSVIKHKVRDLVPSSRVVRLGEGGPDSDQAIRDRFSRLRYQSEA
UniProt Q9H3J6: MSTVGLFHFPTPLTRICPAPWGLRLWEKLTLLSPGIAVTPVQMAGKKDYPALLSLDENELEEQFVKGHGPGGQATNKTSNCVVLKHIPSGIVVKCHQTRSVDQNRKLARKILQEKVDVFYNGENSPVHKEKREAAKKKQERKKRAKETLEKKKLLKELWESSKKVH
UniProt Q9H6D7: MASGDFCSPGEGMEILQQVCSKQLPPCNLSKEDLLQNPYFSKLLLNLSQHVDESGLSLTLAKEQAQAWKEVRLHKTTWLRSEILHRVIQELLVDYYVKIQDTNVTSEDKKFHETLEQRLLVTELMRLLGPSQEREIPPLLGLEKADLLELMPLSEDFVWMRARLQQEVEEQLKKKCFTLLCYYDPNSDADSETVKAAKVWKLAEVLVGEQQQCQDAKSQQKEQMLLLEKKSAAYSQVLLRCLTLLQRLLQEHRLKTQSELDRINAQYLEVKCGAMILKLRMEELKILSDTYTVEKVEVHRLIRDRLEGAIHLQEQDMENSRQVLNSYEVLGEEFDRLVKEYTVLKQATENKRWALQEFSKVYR
UniProt Q9H6K5: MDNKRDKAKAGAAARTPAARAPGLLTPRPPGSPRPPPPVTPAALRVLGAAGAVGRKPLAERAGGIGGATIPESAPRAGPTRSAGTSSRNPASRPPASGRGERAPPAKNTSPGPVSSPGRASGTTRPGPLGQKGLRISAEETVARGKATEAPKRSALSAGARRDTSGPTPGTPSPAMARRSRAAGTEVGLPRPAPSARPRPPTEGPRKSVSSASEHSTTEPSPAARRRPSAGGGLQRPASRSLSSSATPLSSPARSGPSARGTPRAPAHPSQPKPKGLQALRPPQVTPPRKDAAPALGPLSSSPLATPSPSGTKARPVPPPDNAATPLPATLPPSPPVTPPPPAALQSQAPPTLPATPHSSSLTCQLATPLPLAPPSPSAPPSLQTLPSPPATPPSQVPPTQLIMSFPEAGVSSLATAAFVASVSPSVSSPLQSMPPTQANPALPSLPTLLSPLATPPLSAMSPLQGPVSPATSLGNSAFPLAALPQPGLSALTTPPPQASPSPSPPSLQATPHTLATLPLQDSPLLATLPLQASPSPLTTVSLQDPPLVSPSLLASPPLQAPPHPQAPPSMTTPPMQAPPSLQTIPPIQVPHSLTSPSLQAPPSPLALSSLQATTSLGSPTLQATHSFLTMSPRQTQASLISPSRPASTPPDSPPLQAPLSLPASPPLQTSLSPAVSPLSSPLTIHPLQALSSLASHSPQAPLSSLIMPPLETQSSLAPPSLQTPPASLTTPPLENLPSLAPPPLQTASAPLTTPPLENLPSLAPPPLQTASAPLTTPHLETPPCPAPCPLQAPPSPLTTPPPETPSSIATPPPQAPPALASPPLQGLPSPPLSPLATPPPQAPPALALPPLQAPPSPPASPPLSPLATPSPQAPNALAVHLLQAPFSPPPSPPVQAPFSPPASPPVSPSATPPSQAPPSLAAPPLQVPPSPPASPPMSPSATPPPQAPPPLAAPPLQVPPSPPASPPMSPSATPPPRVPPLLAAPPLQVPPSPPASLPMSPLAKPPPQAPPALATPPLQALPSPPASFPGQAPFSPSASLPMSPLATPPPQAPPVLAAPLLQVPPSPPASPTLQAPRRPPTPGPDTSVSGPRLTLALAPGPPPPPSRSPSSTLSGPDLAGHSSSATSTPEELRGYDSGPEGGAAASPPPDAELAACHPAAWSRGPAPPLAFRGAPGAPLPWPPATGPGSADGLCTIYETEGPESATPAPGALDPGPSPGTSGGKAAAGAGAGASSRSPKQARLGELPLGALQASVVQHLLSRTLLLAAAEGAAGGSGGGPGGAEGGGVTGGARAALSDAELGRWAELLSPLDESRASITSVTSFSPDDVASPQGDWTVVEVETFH
UniProt Q9H1K6: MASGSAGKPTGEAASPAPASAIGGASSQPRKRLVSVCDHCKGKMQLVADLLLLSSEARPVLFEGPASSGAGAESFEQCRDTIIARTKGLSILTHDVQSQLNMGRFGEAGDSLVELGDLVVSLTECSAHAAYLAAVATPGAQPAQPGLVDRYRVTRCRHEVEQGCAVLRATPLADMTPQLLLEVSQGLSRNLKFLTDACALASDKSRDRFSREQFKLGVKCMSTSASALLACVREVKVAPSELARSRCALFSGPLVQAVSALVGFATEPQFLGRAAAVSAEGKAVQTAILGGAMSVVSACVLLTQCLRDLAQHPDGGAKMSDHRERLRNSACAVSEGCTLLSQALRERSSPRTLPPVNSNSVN
UniProt Q9H900: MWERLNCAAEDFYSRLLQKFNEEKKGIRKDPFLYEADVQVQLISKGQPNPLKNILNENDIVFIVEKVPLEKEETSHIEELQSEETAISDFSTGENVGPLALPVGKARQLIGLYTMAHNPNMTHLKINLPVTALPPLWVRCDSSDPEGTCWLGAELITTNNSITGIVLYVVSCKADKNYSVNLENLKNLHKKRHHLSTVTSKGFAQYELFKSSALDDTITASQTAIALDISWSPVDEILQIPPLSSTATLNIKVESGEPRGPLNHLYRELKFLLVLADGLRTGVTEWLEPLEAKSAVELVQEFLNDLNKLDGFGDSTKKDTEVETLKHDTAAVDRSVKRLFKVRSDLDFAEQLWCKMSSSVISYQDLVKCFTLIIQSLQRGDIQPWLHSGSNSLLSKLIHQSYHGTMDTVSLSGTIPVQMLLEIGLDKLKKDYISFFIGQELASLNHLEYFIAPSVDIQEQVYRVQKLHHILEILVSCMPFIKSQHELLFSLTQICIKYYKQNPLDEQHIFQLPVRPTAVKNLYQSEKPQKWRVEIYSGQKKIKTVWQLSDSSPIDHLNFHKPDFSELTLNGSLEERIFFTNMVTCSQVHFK
UniProt Q9H553: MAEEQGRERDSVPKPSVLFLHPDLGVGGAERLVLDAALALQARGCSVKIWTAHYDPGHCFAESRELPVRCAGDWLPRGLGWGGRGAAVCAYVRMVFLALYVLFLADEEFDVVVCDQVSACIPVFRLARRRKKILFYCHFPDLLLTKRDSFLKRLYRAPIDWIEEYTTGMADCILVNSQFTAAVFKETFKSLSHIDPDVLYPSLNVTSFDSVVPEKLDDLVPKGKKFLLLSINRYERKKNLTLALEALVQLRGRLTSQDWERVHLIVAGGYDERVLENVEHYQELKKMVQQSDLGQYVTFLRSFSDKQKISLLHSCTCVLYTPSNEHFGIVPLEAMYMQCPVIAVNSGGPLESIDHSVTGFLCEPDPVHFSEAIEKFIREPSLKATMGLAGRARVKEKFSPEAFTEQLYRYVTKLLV
UniProt Q9H0B6: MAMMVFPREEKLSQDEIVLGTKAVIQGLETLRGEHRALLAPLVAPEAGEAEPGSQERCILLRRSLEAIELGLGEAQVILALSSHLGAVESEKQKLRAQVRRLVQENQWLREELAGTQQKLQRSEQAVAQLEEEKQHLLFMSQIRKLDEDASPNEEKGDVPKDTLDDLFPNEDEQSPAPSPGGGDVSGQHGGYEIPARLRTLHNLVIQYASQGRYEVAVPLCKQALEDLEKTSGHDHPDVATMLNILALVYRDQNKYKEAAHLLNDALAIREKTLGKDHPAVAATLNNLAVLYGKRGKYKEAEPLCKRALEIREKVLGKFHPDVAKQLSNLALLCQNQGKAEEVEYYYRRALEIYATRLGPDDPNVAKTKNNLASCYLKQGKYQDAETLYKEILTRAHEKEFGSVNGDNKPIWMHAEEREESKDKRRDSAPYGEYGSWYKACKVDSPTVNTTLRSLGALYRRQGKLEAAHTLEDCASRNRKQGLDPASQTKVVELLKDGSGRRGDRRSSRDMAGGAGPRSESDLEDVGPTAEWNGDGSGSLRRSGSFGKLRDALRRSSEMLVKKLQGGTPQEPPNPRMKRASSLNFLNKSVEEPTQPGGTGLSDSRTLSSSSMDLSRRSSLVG
UniProt Q9H246: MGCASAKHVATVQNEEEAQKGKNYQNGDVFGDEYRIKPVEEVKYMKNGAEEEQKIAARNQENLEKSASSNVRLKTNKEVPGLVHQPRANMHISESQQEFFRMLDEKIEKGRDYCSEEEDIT

Compound: Nc1ncnc2c1ncn2[C@@H]1O[C@H](COP(=O)(O)OP(=O)(O)OP(=O)(O)O)[C@@H](O)[C@H]1O [adenosine triphosphate]
Test: NP40-soluble protein abundance relative to vehicle (solubility fold change) (ratio); higher = more soluble protein in presence of ATP
Procedure, shortened: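 In three independent experiments, Jurkat crude lysate made by Dounce homogenisation was treated for 10 min at room temperature and then 3 min at 37 °C with eight concentrations ranging from 0.1 to 10 mM. It was then solubilised with 0.8% NP40 plus benzonase for 60 min at 4 °C and ultracentrifuged. The supernatant was TMT-labelled for LC-MS/MS, and each value is the fold change against the detergent-processed vehicle for the same replicate, using vsn-normalised intensities.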

Target	NP40-soluble protein abundance (concentration: 0.1mM)	NP40-soluble protein abundance (concentration: 0.5mM)
SRA1 (UniProt Q9HD15)	1.02 ± 0.15	0.918 ± 0.14
PNN (UniProt Q9H307)	0.933 ± 0.1	1.01 ± 0.16
WDR33 (UniProt Q9C0J8)	1.01 ± 0.013	1.15 ± 0.027
UniProt Q9H7F0 and related entries	0.988 ± 0.092	1.04 ± 0.053
UniProt Q9H0X4	0.916 ± 0.067	0.891 ± 0.091
C12orf65 (UniProt Q9H3J6)	0.795 ± 0.034	0.804 ± 0.037
EML4 (UniProt Q9HC35)	1 ± 0.015	0.992 ± 0.015
UniProt Q9H2D6 and related entries	1.06 ± 0.052	1.02 ± 0.084
UniProt Q9H6D7 and related entries	0.994 ± 0.12	0.986 ± 0.082
UniProt Q9H2G2-2	0.988 ± 0.033	1.01 ± 0.032
UniProt Q9H6K5 and related entries	1.02 ± 0.052	0.963 ± 0.081
MOV10 (UniProt Q9HCE1)	1.04 ± 0.05	1.07 ± 0.025
UniProt Q9H0G5	1.009 ± 0.0043	1.08 ± 0.048
TLNRD1 (UniProt Q9H1K6)	0.964 ± 0.05	1.048 ± 0.0076
TMEM126A (UniProt Q9H061)	0.968 ± 0.011	1.01 ± 0.04
ZWILCH (UniProt Q9H900)	1.05 ± 0.087	1.08 ± 0.06
UniProt Q9H3N1	0.959 ± 0.022	0.988 ± 0.04
UniProt Q9H813 and related entries	1.03 ± 0.091	0.991 ± 0.046
SMYD3 (UniProt Q9H7B4)	1.09 ± 0.13	1.07 ± 0.093
ALG2 (UniProt Q9H553)	1.12 ± 0.063	1.06 ± 0.082
CCDC134 (UniProt Q9H6E4)	0.968 ± 0.061	0.956 ± 0.1
UniProt Q9HD33 and related entries	0.87 ± 0.14	0.916 ± 0.18
UniProt Q9C0G0 and related entries	1.02 ± 0.059	0.973 ± 0.17
RAB1B (UniProt Q9H0U4)	0.976 ± 0.021	1.01 ± 0.019
UniProt Q9C037 and related entries	1.05 ± 0.043	1.05 ± 0.066
UniProt Q9HCC0-2	1.04 ± 0.028	1.02 ± 0.04
UniProt Q9H0F7 and related entries	1.16 ± 0.13	1.05 ± 0.047
SLC25A19 (UniProt Q9HC21)	0.931 ± 0.019	0.918 ± 0.067
KLC2 (UniProt Q9H0B6)	0.977 ± 0.012	0.994 ± 0.045
UniProt Q9H246	0.988 ± 0.16	1.1 ± 0.16
